No constants are given. Whether binding was seen depends on the method and setting. A result given as binding can be weak or reduced; the word gives no strength.

Experiment in all cases: two-hybrid; genome-wide array-based matrix screen, all against all; baits in pGBKT7-DEST (yeast Y187), preys in pGADT7-DEST (AH109); mated, 4 replicas, selection on SD -leu-trp-his; positive if at least 3 out of 4 colonies grew
Assay [1] concerns the target T1, EBV BFLF2 (Epstein-Barr virus (EBV)) (UniProt P0CK47).
T1 sequence: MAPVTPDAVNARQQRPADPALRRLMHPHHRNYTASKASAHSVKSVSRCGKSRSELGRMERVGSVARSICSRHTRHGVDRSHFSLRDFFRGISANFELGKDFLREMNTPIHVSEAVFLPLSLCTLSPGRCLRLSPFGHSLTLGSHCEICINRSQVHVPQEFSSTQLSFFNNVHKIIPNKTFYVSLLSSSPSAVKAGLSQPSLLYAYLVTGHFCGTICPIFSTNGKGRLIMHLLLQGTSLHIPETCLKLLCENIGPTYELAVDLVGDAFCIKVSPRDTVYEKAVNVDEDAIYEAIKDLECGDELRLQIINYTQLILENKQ

The target in assay [2] is T2, EBV smallest capsid protein (ortholog of mCMV m48.2) (Epstein-Barr virus (EBV)) (UniProt P14348).
T2 sequence: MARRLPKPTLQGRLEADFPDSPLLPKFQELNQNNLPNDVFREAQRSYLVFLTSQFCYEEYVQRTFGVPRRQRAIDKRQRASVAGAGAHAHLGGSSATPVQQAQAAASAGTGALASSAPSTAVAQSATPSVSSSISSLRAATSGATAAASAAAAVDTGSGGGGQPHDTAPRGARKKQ

In assay [3] the target is T3, EBV ortholog of HSV-1 UL16 (Epstein-Barr virus (EBV)) (UniProt P0CK53).
T3 sequence: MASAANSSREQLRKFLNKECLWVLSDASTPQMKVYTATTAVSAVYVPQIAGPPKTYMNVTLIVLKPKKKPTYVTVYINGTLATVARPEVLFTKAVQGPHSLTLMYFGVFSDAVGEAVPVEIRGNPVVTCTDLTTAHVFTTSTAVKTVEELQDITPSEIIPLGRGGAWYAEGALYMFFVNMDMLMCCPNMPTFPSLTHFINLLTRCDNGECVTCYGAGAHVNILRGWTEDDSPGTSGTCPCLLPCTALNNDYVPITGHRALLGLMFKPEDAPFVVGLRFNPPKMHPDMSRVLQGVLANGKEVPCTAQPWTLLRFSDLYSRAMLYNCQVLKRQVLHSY

Turning to EBV BFRF4 (Epstein-Barr virus (EBV)), the binding result in assay [1] and in assay [2] was “binds” each time.

“EBV ortholog of HSV-1 UL11 (Epstein-Barr virus (EBV))”: in assay [3], the binding entry is on record as “binds”.

The values are drawn from article PMC2731838.
